According to PMC9077921:
Results are given in words; binding and its absence hold for the method and conditions named. Binding seen in cells or lysates may run through a third protein. Some results given as binding are weak or reduced against the parent protein; the word gives no strength.

Chains of the proteins cited; added tags and fusions are not shown.
UniProt Q9Y4X4: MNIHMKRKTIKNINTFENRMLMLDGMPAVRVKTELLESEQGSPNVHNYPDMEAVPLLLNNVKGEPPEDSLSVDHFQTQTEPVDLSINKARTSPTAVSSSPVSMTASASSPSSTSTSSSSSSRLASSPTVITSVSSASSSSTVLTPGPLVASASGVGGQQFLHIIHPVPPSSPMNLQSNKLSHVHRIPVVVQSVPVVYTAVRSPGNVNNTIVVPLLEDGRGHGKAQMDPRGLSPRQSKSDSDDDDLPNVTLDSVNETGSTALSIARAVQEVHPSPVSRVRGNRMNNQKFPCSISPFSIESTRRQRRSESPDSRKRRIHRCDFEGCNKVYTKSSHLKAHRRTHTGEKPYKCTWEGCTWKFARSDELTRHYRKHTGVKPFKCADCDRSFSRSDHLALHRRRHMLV
UniProt Q09472: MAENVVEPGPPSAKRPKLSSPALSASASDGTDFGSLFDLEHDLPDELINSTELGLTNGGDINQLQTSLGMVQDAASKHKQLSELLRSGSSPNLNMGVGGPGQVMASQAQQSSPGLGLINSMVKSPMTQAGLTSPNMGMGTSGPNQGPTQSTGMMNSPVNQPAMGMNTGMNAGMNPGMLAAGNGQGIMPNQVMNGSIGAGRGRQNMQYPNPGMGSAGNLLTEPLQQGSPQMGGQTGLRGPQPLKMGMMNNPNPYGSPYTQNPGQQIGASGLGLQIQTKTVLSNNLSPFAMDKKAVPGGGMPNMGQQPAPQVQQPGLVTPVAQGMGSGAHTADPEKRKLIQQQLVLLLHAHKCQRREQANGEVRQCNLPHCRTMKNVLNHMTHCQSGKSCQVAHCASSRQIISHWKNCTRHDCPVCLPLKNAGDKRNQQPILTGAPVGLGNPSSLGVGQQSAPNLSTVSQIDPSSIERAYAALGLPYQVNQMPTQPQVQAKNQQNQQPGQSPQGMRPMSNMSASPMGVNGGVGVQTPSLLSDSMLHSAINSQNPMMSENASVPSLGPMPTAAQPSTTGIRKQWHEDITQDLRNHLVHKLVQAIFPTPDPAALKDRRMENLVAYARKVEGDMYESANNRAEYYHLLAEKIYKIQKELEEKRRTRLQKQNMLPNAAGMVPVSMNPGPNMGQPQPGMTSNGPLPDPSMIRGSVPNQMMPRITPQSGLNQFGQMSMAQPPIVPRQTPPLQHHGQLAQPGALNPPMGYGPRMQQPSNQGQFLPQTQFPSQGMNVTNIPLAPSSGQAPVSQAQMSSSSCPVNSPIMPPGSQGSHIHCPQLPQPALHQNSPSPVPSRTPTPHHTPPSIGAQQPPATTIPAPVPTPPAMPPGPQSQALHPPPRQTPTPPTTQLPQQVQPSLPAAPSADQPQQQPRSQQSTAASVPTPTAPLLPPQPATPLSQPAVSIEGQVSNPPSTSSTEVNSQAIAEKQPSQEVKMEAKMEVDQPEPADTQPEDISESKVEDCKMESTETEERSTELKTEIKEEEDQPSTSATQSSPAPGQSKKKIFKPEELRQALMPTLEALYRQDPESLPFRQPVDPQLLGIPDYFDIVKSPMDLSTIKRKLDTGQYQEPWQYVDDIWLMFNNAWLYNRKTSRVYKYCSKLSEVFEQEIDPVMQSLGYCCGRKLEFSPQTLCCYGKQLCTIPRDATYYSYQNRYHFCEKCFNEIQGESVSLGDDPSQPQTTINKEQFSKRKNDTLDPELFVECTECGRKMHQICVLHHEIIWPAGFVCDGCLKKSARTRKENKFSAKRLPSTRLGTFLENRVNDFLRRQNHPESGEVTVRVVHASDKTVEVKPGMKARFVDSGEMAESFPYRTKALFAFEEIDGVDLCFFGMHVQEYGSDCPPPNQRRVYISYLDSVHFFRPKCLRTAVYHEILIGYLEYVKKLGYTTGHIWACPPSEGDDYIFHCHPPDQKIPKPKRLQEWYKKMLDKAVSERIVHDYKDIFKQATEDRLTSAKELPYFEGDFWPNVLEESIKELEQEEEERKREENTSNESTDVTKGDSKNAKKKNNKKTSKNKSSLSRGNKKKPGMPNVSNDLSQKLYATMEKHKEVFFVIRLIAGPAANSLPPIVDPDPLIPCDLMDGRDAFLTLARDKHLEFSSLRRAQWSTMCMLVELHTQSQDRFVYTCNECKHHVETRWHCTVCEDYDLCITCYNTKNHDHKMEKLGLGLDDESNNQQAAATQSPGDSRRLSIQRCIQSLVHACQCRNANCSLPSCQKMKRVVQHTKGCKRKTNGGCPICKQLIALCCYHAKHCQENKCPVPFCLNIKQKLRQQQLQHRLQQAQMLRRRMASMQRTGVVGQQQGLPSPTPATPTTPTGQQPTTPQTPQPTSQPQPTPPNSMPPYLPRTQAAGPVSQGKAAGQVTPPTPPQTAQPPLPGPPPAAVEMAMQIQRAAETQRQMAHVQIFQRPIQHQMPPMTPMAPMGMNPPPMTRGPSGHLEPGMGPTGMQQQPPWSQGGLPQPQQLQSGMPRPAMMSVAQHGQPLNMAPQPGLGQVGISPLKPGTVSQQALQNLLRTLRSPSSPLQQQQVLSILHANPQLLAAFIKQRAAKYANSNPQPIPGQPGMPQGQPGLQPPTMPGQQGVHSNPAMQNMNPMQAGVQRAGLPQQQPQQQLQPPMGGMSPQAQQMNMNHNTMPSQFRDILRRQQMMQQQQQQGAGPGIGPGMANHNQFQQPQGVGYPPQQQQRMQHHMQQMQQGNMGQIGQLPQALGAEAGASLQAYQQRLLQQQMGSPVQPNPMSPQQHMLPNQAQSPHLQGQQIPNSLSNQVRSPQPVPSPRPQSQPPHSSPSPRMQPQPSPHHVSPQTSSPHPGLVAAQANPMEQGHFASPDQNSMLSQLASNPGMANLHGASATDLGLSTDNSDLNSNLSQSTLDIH

Target: Kruppel like factor 12 (human (endogenous in THP-1-derived TAMs)) (UniProt Q9Y4X4)
Test: co-IP; in THP-1-derived TAMs; normal rabbit IgG as negative control; which antibody precipitated is not told in the text shown

## histone acetyltransferase EP300 (from UniProt Q09472 1-2414)
  binding: binds
